For one molecule, binding results are on record in publication PMC7181751.

Assay [1] deals with T1, mouse Ptch2, Myc-tagged (pCMV6-mPtch2-MycDDK) (mouse) (UniProt O35595).
T1 sequence: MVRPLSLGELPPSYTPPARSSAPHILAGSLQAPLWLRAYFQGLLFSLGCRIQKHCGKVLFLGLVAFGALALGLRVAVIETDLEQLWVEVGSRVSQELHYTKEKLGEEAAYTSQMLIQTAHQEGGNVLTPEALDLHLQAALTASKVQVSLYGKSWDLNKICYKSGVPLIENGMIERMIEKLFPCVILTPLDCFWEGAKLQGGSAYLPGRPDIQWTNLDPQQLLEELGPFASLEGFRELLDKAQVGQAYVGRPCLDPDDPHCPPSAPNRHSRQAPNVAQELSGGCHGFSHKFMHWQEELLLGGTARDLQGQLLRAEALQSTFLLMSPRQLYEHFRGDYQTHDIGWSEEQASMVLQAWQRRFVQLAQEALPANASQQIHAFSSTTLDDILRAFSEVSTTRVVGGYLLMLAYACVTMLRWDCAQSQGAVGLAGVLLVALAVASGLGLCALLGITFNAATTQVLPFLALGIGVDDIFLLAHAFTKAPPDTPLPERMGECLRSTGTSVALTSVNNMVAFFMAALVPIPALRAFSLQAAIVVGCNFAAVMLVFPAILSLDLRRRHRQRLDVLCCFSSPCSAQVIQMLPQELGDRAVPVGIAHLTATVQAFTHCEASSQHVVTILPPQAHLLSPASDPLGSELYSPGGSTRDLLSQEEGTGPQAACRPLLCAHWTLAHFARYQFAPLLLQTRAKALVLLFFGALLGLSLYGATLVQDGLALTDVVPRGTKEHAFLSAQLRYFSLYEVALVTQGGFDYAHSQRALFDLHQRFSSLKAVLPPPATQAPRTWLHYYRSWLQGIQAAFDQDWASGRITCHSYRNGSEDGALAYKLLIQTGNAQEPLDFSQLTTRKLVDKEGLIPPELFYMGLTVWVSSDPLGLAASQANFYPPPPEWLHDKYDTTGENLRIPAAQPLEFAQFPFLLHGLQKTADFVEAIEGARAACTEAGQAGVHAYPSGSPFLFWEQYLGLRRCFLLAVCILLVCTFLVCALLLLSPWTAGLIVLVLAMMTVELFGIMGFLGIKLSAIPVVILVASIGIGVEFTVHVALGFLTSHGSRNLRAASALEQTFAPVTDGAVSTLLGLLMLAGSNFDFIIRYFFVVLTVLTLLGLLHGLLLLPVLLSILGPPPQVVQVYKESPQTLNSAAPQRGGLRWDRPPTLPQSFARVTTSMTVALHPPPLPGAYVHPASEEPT
Briefly: co-IP; NIH3T3/Cas9 Ptch1 KO cells transfected with Myc-tagged Ptch2, unstimulated (no Shh); IP of Ptch2 and reciprocal IP with antibody against endogenous Gas1, Western blot; lysis in 50 mM HEPES, 150 mM NaCl, 10% glycerol, 1% Nonidet P-40, 1 mM EDTA; protein A/G-agarose. In general terms: In western blotting, separated proteins are transferred to a membrane and probed.

The target in assay [2] is T1, mouse Ptch2, Myc-tagged (pCMV6-mPtch2-MycDDK) (mouse). Briefly: co-IP; NIH3T3/Cas9 Ptch1 KO cells transfected with Myc-tagged Ptch2, stimulated with Shh protein (200 ng/mL) in serum-free medium for 40 min; IP of Ptch2 and reciprocal IP with antibody against endogenous Gas1, Western blot.
Assay [3] deals with T2, mouse Ptch1 (pcDNA3-mPtch1) (mouse) (UniProt Q61115).
T2 sequence: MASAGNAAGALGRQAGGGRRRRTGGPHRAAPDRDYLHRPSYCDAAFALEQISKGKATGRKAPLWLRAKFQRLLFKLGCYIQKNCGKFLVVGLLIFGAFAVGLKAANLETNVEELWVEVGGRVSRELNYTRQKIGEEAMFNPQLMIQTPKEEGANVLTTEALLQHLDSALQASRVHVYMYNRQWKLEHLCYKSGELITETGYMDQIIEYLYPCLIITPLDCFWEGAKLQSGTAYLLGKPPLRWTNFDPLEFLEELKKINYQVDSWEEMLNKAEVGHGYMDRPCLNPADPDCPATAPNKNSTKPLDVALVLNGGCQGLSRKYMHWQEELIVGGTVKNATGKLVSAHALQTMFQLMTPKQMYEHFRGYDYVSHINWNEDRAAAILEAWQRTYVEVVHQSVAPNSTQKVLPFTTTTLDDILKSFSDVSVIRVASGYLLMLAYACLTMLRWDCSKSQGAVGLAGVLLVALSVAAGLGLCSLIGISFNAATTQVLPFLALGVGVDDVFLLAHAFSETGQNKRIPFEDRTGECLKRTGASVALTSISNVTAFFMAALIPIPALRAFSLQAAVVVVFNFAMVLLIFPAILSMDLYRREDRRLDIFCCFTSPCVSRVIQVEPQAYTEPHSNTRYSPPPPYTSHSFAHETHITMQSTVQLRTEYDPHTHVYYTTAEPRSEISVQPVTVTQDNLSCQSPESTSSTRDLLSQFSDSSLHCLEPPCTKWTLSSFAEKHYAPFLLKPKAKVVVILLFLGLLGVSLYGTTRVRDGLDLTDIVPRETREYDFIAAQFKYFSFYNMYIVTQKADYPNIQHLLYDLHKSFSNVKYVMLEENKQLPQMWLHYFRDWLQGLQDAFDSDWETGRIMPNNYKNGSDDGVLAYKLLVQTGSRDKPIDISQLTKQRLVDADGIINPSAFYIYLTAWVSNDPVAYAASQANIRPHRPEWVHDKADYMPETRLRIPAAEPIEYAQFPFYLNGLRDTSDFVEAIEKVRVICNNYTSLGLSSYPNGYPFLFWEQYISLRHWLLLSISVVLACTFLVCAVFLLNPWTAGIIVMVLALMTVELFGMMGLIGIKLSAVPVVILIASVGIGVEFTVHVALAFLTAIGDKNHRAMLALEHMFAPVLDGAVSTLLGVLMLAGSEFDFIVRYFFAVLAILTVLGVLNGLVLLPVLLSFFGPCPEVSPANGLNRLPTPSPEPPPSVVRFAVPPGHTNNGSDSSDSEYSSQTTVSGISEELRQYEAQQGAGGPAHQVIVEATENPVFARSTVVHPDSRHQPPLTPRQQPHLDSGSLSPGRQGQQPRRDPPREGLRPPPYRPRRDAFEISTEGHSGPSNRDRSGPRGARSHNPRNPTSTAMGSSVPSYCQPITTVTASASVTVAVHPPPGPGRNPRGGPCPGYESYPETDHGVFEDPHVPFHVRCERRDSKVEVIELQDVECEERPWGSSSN
Briefly: co-IP; NIH3T3/Cas9 Ptch1 KO cells transfected with mouse Ptch1, unstimulated and 40 min after Shh (partial release at 40 min); IP of Ptch1 and reciprocal IP of endogenous Boc, Western blot.

The target of assay [4] is T2, mouse Ptch1 (pcDNA3-mPtch1) (mouse). Briefly: co-IP; NIH3T3/Cas9 Ptch1 KO cells transfected with mouse Ptch1, stimulated with Shh for 24 h; IP of Ptch1 and reciprocal IP of endogenous Boc, Western blot.

These are yes or no findings as the source states them, for the method shown. Binding seen in cells or lysates may run through a third protein. Some entries that bind do so weakly or less than the wild type. For some of these results: Sequences can lack the tags named with a protein.

B1: Boc (bioregional Cdon-binding protein), endogenous (receptor, UniProt Q6AZB0 26-1110)
chain: DLNEVPQVTVQPMSTVQKLGGTVILGCVVEPPWMNVTWRFNGKELNGSDDALGVFITRGTLVIAALNNHTVGRYQCVARMPAGAVASVPATVTLANLQDFKLDVQHVIEVDEGNTAVIACHLPESHPKAQVRYSVKQEWLEASRDNYLIMPSGNLQIVNASQEDEGMYKCAAYNPVTQEVKTSGSGDRLRVRRSTAEAARIIYPLEAQTVIVTKGQSLILECVASGIPPPRVTWAKDGSSIAAYNKTRFLLSNLLIDTTSEEDSGTYRCMASNGVGDPGAAVILYNVQVFEPPEVTVELSQLVIPWGQSAKLTCEVRGNPPPSVLWLRNAVPLTSSQRLRLSRRALRVVSVGPEDEGVYQCMAENAVGSAHAVVQLRTARPDTTLRPGRDTKPIAATPPMPPSRPSRPDQMLREQPGLVKPPTSSVQPTSLKCPGEEQVAPAEAPIILSSPRTSKTDSYELVWRPRHEGSSRTPILYYVVKHRKVTNSSDDWTISGIPANQHRLTLTRLDPGSLYEVEMAAYNCAGEGQTAMVTFRTGRRPKPEIVASKEQQIQRDDPGASLQSSSQPDHGRLSPPEAPDRPTISTASETSVYVTWIPRGNGGFPIQSFRVEYKKLKKVGDWILATSAIPPSRLSVEITGLEKGISYKFRVRALNMLGESEPSAPSRPYVVSGYSGRVYERPVAGPYITFTDAVNETTIMLKWMYIPASNNNTPIHGFYIYYRPTDSDNDSDYKKDMVEGDRYWHSISHLQPETSYDIKMQCFNEGGESEFSNVMICETKARKFSGQPGRPPPLTLAPPQPPPLETMERPVGTGAMVARASDLPYLIVGVVLGSIVLIIVTFIPFCLWRAWSKQKHTTDLGFPRSALLSSSCQYTMVPLEGLPGHQANGQPYLGGVSGRACVSRVHGSRGCPAATVGCPGRKPQQHCPGELAQQREDTNSQLRQPIVSNGYDLQNQQVARGPQCASGVGAFLYTLPDDSTHQLLQPQDCCHLQKQPVTTCQTAVRRTSESPGLESSWDPPYHSGPRCCLGLVPVEEVDSSDSCQVGGGDWSSQHPSGTYTGQERGMRFSPSPSVHVSFETPPPTI
On to B1, for which the binding result in assay [1] was “no binding”; in assay [2], “no binding”; in assay [3], “binds”; in assay [4] it was “no binding (condition: after Shh for 24 h)”.
